Measurements from PubChem BioAssay AID1508600 (Functional Genomics Laboratory (NCATS/FGL), 2020).
In all, about 53,000 sequences went through this assay and about 3,700 (7%) were called active.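 Rule for the calls: active = gene knockdowns whose robust z-score for IL-1 alpha signal is at least 2 or at most -2, so actives lie on both sides; inactive = the rest.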 The list shows a part of the results.

assay: Components of the Cytosolic LPS Sensing Pathway: Gene Identification via Genome-wide siRNA Screen; details: RAW264.7 macrophages, IL-1a HTRF, actives lie on both sides, screened at 100 nM (by protocol), cells primed 5 h with Pam3CSK4 first;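 note: robust z of the log signal after scaling to non-targeting control siRNA wells of the plate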
Summary of the method: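 Three distinct siRNAs per gene were tested singly at 100 nM in RAW264.7 macrophages. Following Pam3CSK4 priming and 24 hour LipidA transfection, IL-1a secretion was read by HTRF.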

Sequence | z-score
GCCUCAAGAAUACGACGAUTT against Ift57 | inactive: 0.249
GGUAUCAAUGAUUUUCUUGTT against Tas2r110 | inactive: 0.76
GCAAGUCGAGGUAGAUUGCTT against Rap1a | inactive: 0.515
GGAGAAAGAGGAACUGGACTT against Cdc37 | inactive: 0.769
GGAAGACAAAGUCUGGGUGTT against Hpx | inactive: -0.915
GGAUGUAAUUUGCUCCACGTT against Jag2 | inactive: -0.335
GCAGCAGUGCUUACUUAACTT against Ccdc25 | inactive: 0.212
GGAGAGUCCAUACCAGAACTT against C1qa | inactive: 0.0536
GGAUCCACCAGUUAAGAAATT against Hdac4 | inactive: -0.945
GGGUUGUGGUUAUCAAAUATT against Tmem200a | inactive: 1.96
CCACACACUGAUCAACGUGTT against Unc93b1 | inactive: 0.336
CCAAAUGACUUUGGUCCUATT against Vax2 | inactive: 0.576
GGUGCAUGGAAAAAAAUUATT against Neil2 | inactive: -0.691
GGUAACACCUUCCUUUAAGTT against Pstpip2 | inactive: 0.38
CGGAUGAUGCCUAAACUGATT against Hspe1 | inactive: 0.844
CCAGAUCCCUGAAUUGGAATT against Myc | inactive: 1.17
GGUGGGUCUGUCUUAUUUATT against Csnk2a1 | inactive: 0.752
GGGUGUUAGAAAUCAUUAUTT against Dgkd | inactive: 1.19
GGGAGAAGAUGAGAAGAUGTT against Casp14 | inactive: -0.655
GCGUGAAGCACUGAGUAAGTT against Zbed3 | inactive: -0.237
GGAGGAGAACUGUUUGACATT against Camk4 | inactive: -0.68
GGAGAUGGAGUCAGAUAAGTT against Aloxe3 | inactive: -0.642
GGCACAAGUUGACCAAUAUTT against Rtn1 | inactive: -0.263

Sequence | z-score
CCGUGCCAAUAGUUCUGCUTT against Dpp4 | inactive: -0.7
GCGGUUUCGAUUUUUAGUUTT against Pde3b | inactive: 1.45
GGCUCAGGACAAUGACUUCTT against Urgcp | inactive: -0.114
GGAUGCCUUCGUCAUUCUATT against Slc44a1 | inactive: 0.426
GGACCAGCACAUGUGGAUUTT against Olfr547 | inactive: 0.31
GGGUCAGACAGGUAUUAUATT against Crispld1 | inactive: -1.06
GGCUCUGAAAAUUGAACACTT against Cep83 | inactive: 0.0736
GCUGCUUUGGGCACAAGAUTT against Nppb | inactive: 0.428
GGUAAGAAUAAAGUCGCCGTT against Nfe2l2 | inactive: 1.62
GUCCCAGUACCUCUUUCUUTT against Vmn1r26 | inactive: -0.739
GCCUGAAUCUUUAAUAAUCTT against D630028G08Rik | inactive: 0.479
CCUUCAAUCAUGUUCUAACTT against Tmem229a | inactive: -0.504
GGAAUGAAAUCAAACUUGATT against Slc35g3 | inactive: 0.66
GGUUCUUUUUGAAACAGUUTT against Klhl11 | inactive: 0.531
GGAAUGGUUUUUGAAGAGGTT against Rhox2a | inactive: -0.589
GGCAAAGAUAAAAUGCUGATT against Pclaf | inactive: 0.732
GGAUGUCAGUGUUGCAAUGTT against Olfr954 | inactive: 0.191
CGACAUUAGAGAAAGUCAUTT against Hyou1 | inactive: 0.0878
GGCUACAACCAAAUCUUCATT against Papln | inactive: 0.873
GGGAGAUAUGCAAUGAAUATT against Creb5 | inactive: -1.34
GCGUGCUACCUGAAUAAGATT against H2bu2 | inactive: -0.303
GGAGAAUUUGGAGGUUUUGTT against Rbbp4 | inactive: 1.82
GCAUGAAGGUCGACUACGATT against Clk3 | inactive: -1.14

As a working copy, some entries already given.
Sequence | z-score
GGGUCAGACAGGUAUUAUATT against Crispld1 | inactive: -1.06
GGCUCUGAAAAUUGAACACTT against Cep83 | inactive: 0.0736
GCUGCUUUGGGCACAAGAUTT against Nppb | inactive: 0.428

Remaining list, next part

Sequence | z-score
GGUGGAAUCGUUUUGCUGUTT against Col15a1 | inactive: 0.155
GGUCUUUUACAAAAUUCCCTT against Has3 | inactive: -0.509
GCAGCAUAUGAACACAAUATT against Ccdc186 | inactive: 0.578
GGCUAAAACAGGAAAUCUGTT against Mip | inactive: -0.398
GGAUAUACAUCUGAAGAUGTT against Mphosph8 | inactive: 0.242
GGCCACAAAGACUCUGUGATT against Aamp | active: -2.25
CGAGUUAGCCUUCAUCCCUTT against Islr | inactive: -0.409
GGACAUUUUUAUGCACAAUTT against Il1rl2 | inactive: 1.76
GGCCAUGGAGAAGUACAACTT against Dynll2 | inactive: 0.986
GGAGCUAAUCGAGAAAAUGTT against Arl8a | inactive: -0.434
GGGACGCAGUUUUCCGAUGTT against Nkx2-3 | inactive: 0.73
GGCAAAGAUAAUAAAGCUATT against Xpo1 | inactive: -0.967
GGGAUGGAUUUAGAUAUAATT against Ier3ip1 | inactive: 0.623
GGUCAAACAAGAAACAGUUTT against Prdm1 | inactive: 0.417
CCAUCUUGACAUCUCGUGUTT against Olfr592 | inactive: -1.9
GGAAAGGGCGGUUCAAAAGTT against Cacnb1 | inactive: 0.234
GGGAGAUCUCCAACACCAATT against Dipk1b | inactive: -1.02
GGGACUGCUCUUUUCUCUCTT against Rabif | inactive: 0.354
GGAACAGAAGAAAAAACACTT against Ftsj3 | inactive: 1.19
GGGUUAUUCAAGAAAAGCATT against Stip1 | inactive: -0.162
CGACAGAGUUAAAUACUAGTT against Tango2 | inactive: -0.123
CCUCAAUGGGUUUGUUCAATT against Kcns3 | inactive: 1.86
